Reference: patent US20080025968A1
Results are given in words; binding and its absence hold for the method and conditions named. Binding seen in cells or lysates may run through a third protein. Some entries that bind do so weakly or less than the wild type. Where a sequence is shown, tags or fusion partners need not be part of it.

By UniProt entry, the sequences of proteins in these tests, tags left out. Where a name states a change or a piece, a line headed by the entry shows the natural chain unless it says otherwise.
UniProt Q99558: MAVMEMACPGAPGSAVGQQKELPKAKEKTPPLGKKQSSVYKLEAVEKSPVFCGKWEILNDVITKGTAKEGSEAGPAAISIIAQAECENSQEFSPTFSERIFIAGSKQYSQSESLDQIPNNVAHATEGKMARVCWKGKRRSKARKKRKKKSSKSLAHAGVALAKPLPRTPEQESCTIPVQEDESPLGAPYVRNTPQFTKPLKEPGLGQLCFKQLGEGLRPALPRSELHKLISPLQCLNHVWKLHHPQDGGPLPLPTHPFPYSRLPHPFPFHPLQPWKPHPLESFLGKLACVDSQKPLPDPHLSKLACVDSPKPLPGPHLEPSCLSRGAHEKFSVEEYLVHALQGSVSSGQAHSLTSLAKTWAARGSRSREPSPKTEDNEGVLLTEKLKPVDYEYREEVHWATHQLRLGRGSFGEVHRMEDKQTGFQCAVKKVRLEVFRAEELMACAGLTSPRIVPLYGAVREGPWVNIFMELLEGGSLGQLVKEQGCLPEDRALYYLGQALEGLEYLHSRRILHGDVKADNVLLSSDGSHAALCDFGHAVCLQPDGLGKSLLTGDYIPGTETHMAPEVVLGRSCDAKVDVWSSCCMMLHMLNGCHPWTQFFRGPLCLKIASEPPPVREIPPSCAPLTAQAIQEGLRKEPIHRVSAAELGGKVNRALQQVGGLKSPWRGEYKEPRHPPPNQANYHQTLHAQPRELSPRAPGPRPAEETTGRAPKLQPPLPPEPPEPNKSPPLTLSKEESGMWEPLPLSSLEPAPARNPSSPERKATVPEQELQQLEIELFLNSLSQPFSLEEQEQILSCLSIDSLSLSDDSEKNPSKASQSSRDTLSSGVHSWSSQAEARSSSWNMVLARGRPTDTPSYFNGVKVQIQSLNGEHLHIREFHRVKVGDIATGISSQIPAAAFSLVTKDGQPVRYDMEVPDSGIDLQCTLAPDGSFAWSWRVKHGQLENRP

How the values were obtained:
[1] = target: T1, HIS-SIVA2 (human SIVA2 in pcDNA3.1-HIS) (human) (UniProt O15304); experiment: co-immunoprecipitation from transfected HEK293 cells
T1 sequence: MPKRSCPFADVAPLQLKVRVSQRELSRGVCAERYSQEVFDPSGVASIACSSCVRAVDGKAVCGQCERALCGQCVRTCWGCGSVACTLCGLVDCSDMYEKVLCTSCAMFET

[2] = target: T2, HIS-SIVA1 (human SIVA1 in pcDNA3.1-HIS) (human) (UniProt O15304); experiment: as above
T2 sequence: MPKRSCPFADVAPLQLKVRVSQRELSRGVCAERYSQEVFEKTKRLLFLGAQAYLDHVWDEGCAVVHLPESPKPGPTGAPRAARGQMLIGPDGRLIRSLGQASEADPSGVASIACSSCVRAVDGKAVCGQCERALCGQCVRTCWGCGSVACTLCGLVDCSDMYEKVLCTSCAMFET

[3] = target: T1, HIS-SIVA2 (human SIVA2 in pcDNA3.1-HIS) (human); experiment: co-immunoprecipitation (anti-HIS and anti-myc) from transfected HEK293T cells
[4] = target: T2, HIS-SIVA1 (human SIVA1 in pcDNA3.1-HIS) (human); experiment: as above
[5] = target: T1, HIS-SIVA2 (human SIVA2 in pcDNA3.1-HIS) (human); experiment: summary of yeast two-hybrid and co-immunoprecipitation
[6] = target: T2, HIS-SIVA1 (human SIVA1 in pcDNA3.1-HIS) (human); experiment: as above

binding [1]: binds
binding [2]: binds
binding [3]: binds
binding [4]: binds
binding [5]: binds
binding [6]: binds
Substance: myc-NIK (NIK N-terminally fused to the myc tag) (from UniProt Q99558 1-947) (enzyme)
